These results are taken from US10633353B2, “Polymerizable compound, composition, polymer, optically anisotropic body, liquid crystal display element, and organic EL display” (DIC Corporation, priority 2014, dated 2020).

Data set [1] is described as follows: Alignment property of the optical film.
Data set [2] can be described thus: Optical property of the optical film (retardation, Re(450)/Re(550)). Particulars: Re(450)/Re(550) of the optical film, RET-100.
[3] abbreviates: optical film, visual inspection and polarized light microscope.

As to `C=CC(=O)OCCCCCCOc1ccc(C(=O)Oc2ccc(-c3ccc(OC(=O)c4ccc(OCCCCCCOC(=O)C=C)cc4)cc3C=NN=C3c4ccccc4-c4ccccc43)cc2)cc1` [1-hk-86], in data set [1] (summary in words), the alignment property result is recorded as “good”. Further, the Optical property result in data set [2] is reported as “A (Re(450)/Re(550)≤0.85)”.

Regarding `C=CC(=O)OCCCCCCOc1ccc(C(=O)Oc2ccc(OC(=O)c3ccc(OCCCCCCOC(=O)C=C)cc3)c3sc(-c4ccc([N+](=O)[O-])cc4)nc23)cc1` [r-1, reference compound], in data set [1] (setting [3]), the alignment property result was “C (Although the degree of the orientation of the optical film which was visually confirmed was lower than those defined in A and B, the inspection of the optical film with a polarized light microscope confirmed that the orientation area was 60% to 90%.)”. The Optical property result in data set [2] is on record as “C (0.95<Re(450)/Re(550)≤1.05)”.

On to `C=CC(=O)OCCCCCCOc1ccc(OC(=O)C2CCC(C(=O)Oc3ccc(OC(=O)C4CCC(C(=O)Oc5ccc(OCCCCCCOC(=O)C=C)cc5)CC4)c4c3SC(=C(C#N)C#N)S4)CC2)cc1` (centres unmarked) [r-2, reference compound], for which the alignment property result in data set [1] (setting [3]) is “C (Although the degree of the orientation of the optical film which was visually confirmed was lower than those defined in A and B, the inspection of the optical film with a polarized light microscope confirmed that the orientation area was 60% to 90%.)”. Further, the Optical property entry in data set [2] is listed as “C (0.95<Re(450)/Re(550)≤1.05)”.

Regarding `C=CC(=O)OCCCCCCOC1CCC(OC(=O)C2CCC(C(=O)Oc3ccc(OC(=O)C4CCC(C(=O)OC5CCC(OCCCCCCOC(=O)C=C)CC5)CC4)c4c3SC(=C(C#N)C(=O)OCC)S4)CC2)CC1` (centres unmarked) [r-3, reference compound], the alignment property result in data set [1] (setting [3]) was “C (Although the degree of the orientation of the optical film which was visually confirmed was lower than those defined in A and B, the inspection of the optical film with a polarized light microscope confirmed that the orientation area was 60% to 90%.)”. Moreover, in data set [2], the Optical property result is on record as “C (0.95<Re(450)/Re(550)≤1.05)”.
